Assay results taken from PubChem BioAssay AID1487 (National Center for Advancing Translational Sciences (NCATS), 2009).
Some of the results follow. These are further read-outs of the screen, such as a control signal, another cell line or another target. No call is given for them. The list favours compounds with an active or inconclusive main result. Words in brackets tell the shape of the fitted curve; partial curves, single points and poor fits give uncertain potencies.

Experiment: qHTS Assay for Modulators of Lamin A Splicing
Details: HeLa LMNA splicing GFP/RFP minigene ratio, 48 h
Summary of the method: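 S3 HeLa cells stably expressing lamin A-EGFP splicing minigene plus DsRed2, 600 cells/well, 48 h compound exposure at 37C. Laser-scanning cytometry; analysed as GFP (500-530 nm)/RFP (575-640 nm) total intensity ratio; 0.5% DMSO vehicle.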

[1] = measured here: RFP viability control channel
[2] = measured here: GFP splicing reporter channel

## CCOC(=O)CN1NC2(CCC(C(C)(C)C)CC2)NC1=S (stereo not drawn)
[1]
  AC50: 35.5 µM [falling, single point]

## Cc1ccccc1NC(=O)C(C#N)Cc1cccnc1 (stereo not drawn)
[2]
  AC50: 0.0631 µM [falling, full curve, poor fit]
[1]
  AC50: 0.0631 µM [falling, full curve, poor fit]

## O=S(=O)(Nc1ccc2c3c(cccc13)CC2)c1ccc(F)cc1
[2]
  AC50: 17.8 µM [rising, single point]

## O=C1CCc2cc(S(=O)(=O)NCCC(=O)NC3CCN(Cc4ccccc4)CC3)ccc2N1
[1]
  AC50: 0.398 µM [falling, partial curve, poor fit]

## CCC1Oc2ccc(C)cc2N(CC(=O)N2CCN(c3ccc(F)cc3)CC2)C1=O (stereo not drawn)
[2]
  AC50: 25.1 µM [rising, single point]
[1]
  AC50: 35.5 µM [rising, partial curve]

## Cc1nc(CC(=O)NNS(=O)(=O)c2ccc3ccccc3c2)cs1
[1]
  AC50: 3.55 µM [rising, partial curve, poor fit]

## O=C(CN(Cc1ccco1)C(=O)c1ccc(Cl)cc1)Nc1ccc(Cl)c(Cl)c1
[1]
  AC50: 12.6 µM [rising, single point]

## COc1ccc(C)cc1C1=Nc2ccccc2C1(C)C
[2]
  AC50: 11.2 µM [rising, single point]
[1]
  AC50: 31.6 µM [rising, single point]

## CC(/C=N/NC(=O)c1cc(-c2ccncc2)nc2ccccc12)=C\c1ccco1
[1]
  AC50: 0.891 µM [rising, partial curve]

## O=C(Nc1ccc(F)cc1)N(CCCN1CCOCC1)Cc1cc2cc3c(cc2[nH]c1=O)OCCO3
[2]
  AC50: 35.5 µM [rising, single point]
[1]
  AC50: 20 µM [rising, single point]

## CCN(CC)S(=O)(=O)c1ccc(N2CCOCC2)c(NC(=O)c2cc([N+](=O)[O-])ccc2Cl)c1
[2]
  AC50: 0.355 µM [falling, single point]

## CCCOC(=O)C(C)n1cnc2sc(C)c(C)c2c1=O (stereo not drawn)
[1]
  AC50: 0.01 µM [falling, full curve, poor fit]

## CN1Cc2cc(C(=O)c3cc(Cl)cc(CSc4ncccn4)c3O)cnc2NC1=O
[2]
  AC50: 0.891 µM [rising, full curve]
[1]
  AC50: 0.447 µM [rising, full curve]

## NC(=O)c1sc2nc3c(c(-c4ccccc4)c2c1N)CCC3
[1]
  AC50: 22.4 µM [rising, single point]

## O=S(=O)(NCC(c1ccco1)N1CCN(c2ccccc2F)CC1)c1ccccc1 (stereo not drawn)
[2]
  AC50: 11.2 µM [rising, partial curve]
[1]
  AC50: 14.1 µM [rising, single point]

## COc1ccc2[nH]cc(CCNC(C)=O)c2c1
[2]
  AC50: 0.0708 µM [rising, full curve, poor fit]
[1]
  AC50: 0.000794 µM [rising, full curve, poor fit]

## O=C(CCCOc1ccc(Cl)cc1Cl)n1nnc2ccccc21
[1]
  AC50: 0.0501 µM [rising, full curve, poor fit]

## Cc1cc(/C=N/n2cnnc2)c(C)n1-c1ccccc1
[2]
  AC50: 7.08 µM [falling, full curve, poor fit]
[1]
  AC50: 10 µM [falling, partial curve, poor fit]

## COc1ccccc1Nc1ncnc2c1cnn2-c1cccc(C)c1
[2]
  AC50: 11.2 µM [rising, partial curve, poor fit]
[1]
  AC50: 10 µM [rising, partial curve]

## CCC(CC)c1nnc(NC(=O)c2ccc3ccccc3n2)s1
[2]
  AC50: 12.6 µM [falling, partial curve]
[1]
  AC50: 28.2 µM [falling, partial curve, poor fit]

## O=C(Cc1c[nH]c2ccccc12)Nc1cccc(S(=O)(=O)N2CCCCC2)c1
[1]
  AC50: 28.2 µM [rising, single point]

## O=Nc1c(-c2c(O)[nH]c3ccccc23)[nH]c2ccccc12
[2]
  AC50: 10 µM [falling, partial curve, poor fit]
[1]
  AC50: 7.94 µM [falling, partial curve, poor fit]

## COc1ccc(C(=O)CSC2=C(C#N)C3(CCCCC3)C(C#N)=C(N)N2)cc1
[1]
  AC50: 14.1 µM [rising, partial curve]

## O=C(NCc1cccc(CNC(=O)C(=O)NCC2CCCO2)c1)C(=O)NCC1CCCO1 (stereo not drawn)
[1]
  AC50: 5.62 µM [falling, single point]

## CCCn1c(SCC(=O)Nc2ccc3c(c2)CCC3)n[nH]c1=O
[1]
  AC50: 22.4 µM [rising, single point]

## O=C(Nc1cccc(Cl)c1)C1C2CCC3C(CCC21)C3(Cl)Cl (stereo not drawn)
[1]
  AC50: 14.1 µM [rising, partial curve]

## Cc1[nH]c2ccccc2c1C(=O)/C=C\c1ccccc1Cl
[1]
  AC50: 8.91 µM [rising, partial curve]

## COc1cccc(-c2nc(CCl)cs2)c1
[1]
  AC50: 0.562 µM [falling, full curve, poor fit]

## O=C(NC1CC(=O)N(c2cccc(F)c2)C1)c1cccs1 (stereo not drawn)
[2]
  AC50: 5.01 µM [rising, partial curve]
[1]
  AC50: 5.62 µM [rising, single point]

## Cc1ccc2nc(-c3ccc(NC(=O)CSc4nccc(=O)[nH]4)cc3)sc2c1
[2]
  AC50: 3.98 µM [falling, full curve, poor fit]
[1]
  AC50: 5.01 µM [falling, single point]

## Cc1c(CN2CCCC(C(=O)c3cccc(OC(C)C)c3)C2)c(=O)n(-c2ccccc2)n1C (stereo not drawn)
[1]
  AC50: 0.0282 µM [falling, full curve, poor fit]

## O=C(COC(=O)/C(=C/c1cccs1)c1cccs1)NC(c1ccccc1)c1ccccc1
[2]
  AC50: 7.08 µM [rising, partial curve]
[1]
  AC50: 12.6 µM [rising, partial curve, poor fit]

## Cc1ccccc1Nc1cc(C(=O)NCCCN2CCN(c3cccc(Cl)c3)CC2)c2ccccc2n1
[1]
  AC50: 14.1 µM [rising, single point]

## Cc1ccc(N2C(=O)N(CC(=O)Nc3ccc(C)c(C)c3[N+](=O)[O-])C(=O)C2C)cc1 (stereo not drawn)
[1]
  AC50: 1.26 µM [rising, partial curve]
